Fewer than 10 of roughly 24,000 compounds were called active. The shares of active, inactive and inconclusive entries below differ from those in the screen.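 How the source made its calls: active means fluorescent ligand binding to cells raised by more than 40% of the manganese-induced maximum; inconclusive means compound's own fluorescence above 85% of the ligand control signal; inactive means the rest.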
target: Integrin alpha-4 (Homo sapiens) (UniProt P13612); assay: enhancers of LDV-FITC binding to VLA-4 integrin, primary screen, Jurkat cells, flow cytometry (AID 528); settings: stronger effect = higher value, screened at 10 µM (by protocol);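 on activation: 0% = ligand binding without compound and 100% = manganese-stimulated maximal binding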

Amino acid sequences for entries named in this document (tags omitted).
UniProt P13612, whole entry, looked up: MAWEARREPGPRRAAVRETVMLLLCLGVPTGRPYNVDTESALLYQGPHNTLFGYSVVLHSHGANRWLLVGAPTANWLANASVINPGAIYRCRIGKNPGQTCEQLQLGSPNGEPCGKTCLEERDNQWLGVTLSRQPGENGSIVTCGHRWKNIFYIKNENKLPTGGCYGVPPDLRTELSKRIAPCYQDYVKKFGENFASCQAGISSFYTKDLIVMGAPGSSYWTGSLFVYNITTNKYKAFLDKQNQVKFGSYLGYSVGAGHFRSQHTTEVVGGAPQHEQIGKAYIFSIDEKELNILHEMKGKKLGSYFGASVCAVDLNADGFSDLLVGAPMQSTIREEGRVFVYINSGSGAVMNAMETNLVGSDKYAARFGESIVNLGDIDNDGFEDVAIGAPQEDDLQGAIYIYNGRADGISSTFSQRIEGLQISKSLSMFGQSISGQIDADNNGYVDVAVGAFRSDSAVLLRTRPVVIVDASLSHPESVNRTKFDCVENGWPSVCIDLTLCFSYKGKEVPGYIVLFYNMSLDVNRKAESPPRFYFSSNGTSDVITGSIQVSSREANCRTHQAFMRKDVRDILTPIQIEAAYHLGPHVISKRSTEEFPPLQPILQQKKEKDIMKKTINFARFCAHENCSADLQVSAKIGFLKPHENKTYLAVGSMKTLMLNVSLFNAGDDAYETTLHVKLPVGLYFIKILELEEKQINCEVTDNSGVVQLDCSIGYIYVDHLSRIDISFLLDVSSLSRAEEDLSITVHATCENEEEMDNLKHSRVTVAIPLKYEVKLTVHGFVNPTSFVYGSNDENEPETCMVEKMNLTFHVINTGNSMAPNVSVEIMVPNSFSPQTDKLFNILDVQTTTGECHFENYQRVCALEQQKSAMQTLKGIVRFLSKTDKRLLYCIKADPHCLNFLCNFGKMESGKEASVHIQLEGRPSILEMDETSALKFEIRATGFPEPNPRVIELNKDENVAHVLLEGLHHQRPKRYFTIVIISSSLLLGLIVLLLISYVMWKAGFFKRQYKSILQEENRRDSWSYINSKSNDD

Row | SMILES | activation
1 | CN1CCc2nc(SCCOc3ccccc3)c(C#N)cc2C1 | inconclusive
2 | COc1cccc(NC(=O)C2CCCN2C(=O)OCc2ccccc2)c1 (centres undefined) | inactive: -5%
3 | CCn1c(C(=O)N2CCC(C(=O)NCc3cccs3)CC2)cc2sccc21 | inconclusive
4 | CCOc1cc(C2C(C(=O)c3ccccc3)=C(C(=O)OC)Nc3nnnn32)ccc1O (centres undefined) | inconclusive
5 | Cc1ccc(Cn2ccc(NC(=O)c3cc(CC(C)C)on3)n2)cc1 | inactive: -7%
6 | COC(=O)c1cc(-c2ccc(Br)cc2)on1 | inconclusive
7 | COC(=O)C1=C(C)OC(N)=C(C#N)C1c1c(C)nn(-c2ccccc2)c1Cl (centres undefined) | inconclusive
8 | COCCOC(=O)C1=C(C)NC(=O)N(C(C)=O)C1c1ccc(Cl)cc1 (centres undefined) | inconclusive
9 | N#CC1=C(N)N(c2ccc(Oc3ccccc3)cc2)C(=O)C1 | inactive: -4%
10 | CCc1c(C)nc(SCCOc2ccc(OC)cc2)[nH]c1=O | inconclusive
11 | C[C@H](CS)C(=O)N1CCC[C@H]1C(=O)O | inactive: 1%
12 | Cc1cc(N2C(=O)C3C4C=CC(C4)C3C2=O)ccc1Br (centres undefined) | inactive: 5%
13 | Cc1cc(C)nc(NC(=O)c2ccc(OC(C)C)cc2)n1 | inconclusive
14 | CCc1c(C#N)c(SCc2c(C)noc2C)nc2c1C(=O)CC(C)(C)C2 | inconclusive
15 | COCCSc1nnc(NC(=O)CSCc2ccccc2)s1 | inactive: 5%
16 | CCCCN(Cc1cc2cc(OC)ccc2[nH]c1=O)C(=O)c1ccccn1 | inconclusive
17 | O=S(=O)(CCOc1ccccc1)c1nc2ccccc2[nH]1 | inactive: 2.5%
18 | COc1ccccc1N1CCN(C(=O)c2cc3c(-c4ccc(Cl)cc4)nn(C)c3s2)CC1 | inconclusive
19 | CC(=O)NCCn1c(SCC(=O)c2ccccc2)nc2ccccc2c1=O | inconclusive
20 | Cc1ncc(CO)c2cc(C(N)=O)c(=Nc3ccccc3)oc12 | inconclusive
21 | CCCOc1ccc2oc(=O)c3c(c2c1)CCCN3C(=O)CN1CCCC(C(=O)OCC)C1 (centres undefined) | inconclusive
22 | CC(C)(C)c1ccc(S(=O)(=O)N2CCN(CCC#N)CC2)cc1 | inconclusive
23 | Cn1c(Cn2c(=O)sc3ccccc32)nnc1SCC(=O)Nc1cccc(F)c1 | inconclusive
24 | Cc1ccc(F)cc1NC(=O)C1CCCN(c2ncccn2)C1 (centres undefined) | inconclusive
25 | COc1ccc(CN(C(=O)c2ccccc2OC)C2CCS(=O)(=O)C2)cc1 (centres undefined) | inactive: -2%

Looked up above:
Under activation, N#CC1=C(N)N(c2ccc(Oc3ccccc3)cc2)C(=O)C1 is listed with inactive: -4%
Under activation, COCCOC(=O)C1=C(C)NC(=O)N(C(C)=O)C1c1ccc(Cl)cc1 (centres undefined) is listed with inconclusive
Under activation, CC(=O)NCCn1c(SCC(=O)c2ccccc2)nc2ccccc2c1=O is listed with inconclusive
Under activation, Cc1ccc(F)cc1NC(=O)C1CCCN(c2ncccn2)C1 (centres undefined) is listed with inconclusive
Under activation, CCc1c(C)nc(SCCOc2ccc(OC)cc2)[nH]c1=O is listed with inconclusive
Under activation, Cc1ncc(CO)c2cc(C(N)=O)c(=Nc3ccccc3)oc12 is listed with inconclusive

Next part

Row | SMILES | activation
26 | O=C1CC(c2ccccc2)CC(O)=C1C=NCc1ccco1 (centres undefined) | inconclusive
27 | Cc1ccc2c(c1)NC(=O)C(CC(=O)NCCCN1CCN(c3cc(C)ccc3C)CC1)O2 (centres undefined) | inconclusive
28 | CCc1cc2c(=O)c(-c3cnn(-c4ccccc4)c3)coc2c(CN2CCOCC2)c1O | inconclusive
29 | Cc1ccc2[nH]c3c(N4CCc5ccccc5C4)ncnc3c2c1 | inconclusive
30 | NC(=O)c1oc2ccc(Cl)cc2c1NC(=O)CN1CCOCC1 | inactive: 1%
31 | CC(C)Sc1nnc(Cn2c(=O)sc3ccccc32)n1-c1ccccc1 | inconclusive
32 | O=C(c1ccc2c(=O)n(Cc3ccco3)c(=S)[nH]c2c1)N1CCN(c2ccccc2)CC1 | inconclusive
33 | CCOC(=O)Cc1nnc2c(Nc3ccccc3F)nc3nonc3n12 | inconclusive
34 | COc1ccc(-c2nc(CSCC(=O)N3CCN(C4CCCCC4)CC3)c(C)o2)cc1OC | inactive: 2%
35 | N#CC1=C2SCN(Cc3ccco3)CN2C(=O)CC1c1c(F)cccc1Cl (centres undefined) | inconclusive
36 | CCOc1ccc2nc(N3CCCCCC3)sc2c1 | inconclusive
37 | CC1(C)Cc2c(c(N3CCOCC3)nc3sc(C#N)c(N)c23)CS1 | inactive: 7%
38 | Cc1cc(=O)oc2ccc(OCC(=O)N(Cc3ccc(F)cc3)Cc3ccco3)cc12 | inactive: -2%
39 | COC(=O)CC1Oc2ccc(C)cc2NC1=O (centres undefined) | inactive: 6%
40 | COC(=O)c1c(-c2cccs2)csc1NC(=O)CN1CCOCC1 | inactive: -5.5%
41 | CCOc1ccc(CC(=O)Nc2ccc(S(=O)(=O)Nc3cc(C)on3)cc2)cc1OCC | inconclusive
42 | COc1ccc(-c2cc(C(F)(F)F)nc(N3CCN(c4ccccc4)CC3)n2)cc1OC | inactive: 5%
43 | Cc1ccc2c(c1)NC(=O)C(CC(=O)NCCCN1CCCC1)O2 (centres undefined) | inconclusive
44 | CCOC(=O)C1=C(C)OC(N)=C(C#N)C1c1ccoc1 (centres undefined) | inactive: 7.5%
45 | COc1ccc2nc3oc(C(=O)N4CCN(c5cccc(Cl)c5)CC4)cc3cc2c1 | inconclusive
46 | NC(=O)c1cccn1Cc1ccccc1Cl | inactive: -8%
47 | Cc1cccc(-n2ncc3c(NCCCn4ccnc4)ncnc32)c1 | inactive: 1%
48 | COc1cccc(CNC(=O)C2CCN(S(=O)(=O)c3cccc4cccnc34)CC2)c1 | inconclusive
49 | CCCCC(=O)NCCc1cc2ccc(OC)cc2[nH]c1=O | inconclusive
50 | CCCCCn1c(NCc2ccco2)nc2ccccc21 | inconclusive

Row | SMILES | activation
51 | CN1C(=O)c2ccccc2C(C(=O)NCC2CCCO2)C1c1c[nH]c2ccccc12 (centres undefined) | inactive: -3%
52 | O=C(CC1N=C2c3ccccc3N=C(SCc3ccc(F)cc3)N2C1=O)NCc1ccco1 (centres undefined) | inconclusive
53 | Cc1ccc(C)c(N2CCN(CC(=O)Nc3ccc4[nH]c(=O)[nH]c4c3)CC2)c1 | inconclusive
54 | O=C(CSc1nnc(CNC(=O)c2ccco2)o1)c1ccc(Cl)cc1 | inconclusive
55 | COc1cccc(-c2nn(C)c3sc(C(=O)NCc4ccc(C)o4)cc23)c1 | inconclusive
56 | O=C(NCCc1ccc(Cl)cc1)c1nnc(Cc2ccc(Cl)cc2)o1 | inconclusive
57 | CCCCS(=O)(=O)NC1=NCN(C2CCN(Cc3ccccc3)CC2)CN1 | inactive: 1%
58 | CCC(C)NC(=O)C1CCC(=O)N(c2ccc3c(c2)OCO3)C1c1ccc(OC)cc1 (centres undefined) | inconclusive
59 | CCOc1ccc(NC2c3ccccc3C(=O)N2Cc2ccco2)cc1 (centres undefined) | inactive: -4%
60 | Cc1ccc2cc3cc(C(=O)NCCCN4CCCCCC4)oc3nc2c1 | inconclusive
61 | CCOc1ccc(C2c3c(oc4ccccc4c3=O)C(=O)N2c2ccccn2)cc1OC (centres undefined) | inconclusive
62 | COC(=O)c1ccc2c(c1)N(Cc1ccccc1F)C(=O)c1ccccc1S2=O (centres undefined) | inconclusive
63 | O=c1cc(CSc2ccccn2)c2ccccc2[nH]1 | inconclusive
64 | Cn1c(=O)[nH]c(=O)c2c1nc(CN1CCN(c3ccc(F)cc3)CC1)n2CCCc1ccccc1 | inconclusive
65 | CCCCn1c(-c2nonc2NC(=O)c2ccccc2Cl)nc2ccccc21 | inconclusive
66 | CC1CCCCC1NC(=O)c1nnc(Cc2ccc(Cl)cc2)o1 (centres undefined) | inconclusive
67 | O=C1CSc2ccccc2N1Cc1ccccc1F | inconclusive
68 | CC(C)(C)c1ccc(-c2nnc3sc(-c4ccccn4)nn23)cc1 | inconclusive
69 | CCCn1c(=NC(C)=O)c(C#N)cc2c(=O)n3cccc(C)c3nc21 | inactive: -3.5%
70 | Cc1cc(C)n2nc3nc(N4CCCCC4)nc(-c4ccco4)c3c2n1 | inconclusive
71 | CNC(=O)CN(C#N)c1nc(N(C)C)nc(N(C)C)n1 | inactive: 5%
72 | O=C(CN1C(=O)C2(OCCO2)c2ccccc21)c1ccc(F)cc1 | inconclusive
73 | Cc1cc(C)c2c(=O)[nH]c(=O)n(Cc3ccccc3)c2n1 | inconclusive
74 | COc1ccc(N2CCN(c3ccc(N)cc3C#N)CC2)cc1 | inconclusive
75 | CCC(C)NC(=O)C1CCC(=O)N1Cc1ccc(C)cc1 (centres undefined) | inactive: 4%

Row | SMILES | activation
76 | CCOC(=O)N1CCN(C(=O)C(CC)n2nc(C)c3sc4ccccc4c3c2=O)CC1 (centres undefined) | inconclusive
77 | CCCc1[nH]nc2c1C(c1cccc(OC(=O)c3ccco3)c1)C(C#N)=C(N)O2 (centres undefined) | inactive: -4.3%
78 | N#CC1=C(N)Oc2n[nH]c(-c3ccc(F)cc3)c2C1c1ccncc1 (centres undefined) | inactive: -1.9%
79 | CCc1nc2c(cnn2-c2ccc(Cl)cc2)c(=O)n1-c1ccc(OC)cc1 | inconclusive
80 | CCOc1ccc(NC(=O)c2oc3ccccc3c2NC(=O)C2CC2)cc1 | inactive: -7%
81 | Cc1ccc(-c2nnc3c4ccccc4c(C)nn23)cc1S(=O)(=O)N1CCN(C)CC1 | inactive: -10%
82 | Cn1c(CCNC(=O)c2ccco2)nc2cc(NC(=O)C3CCCCC3)ccc21 | inconclusive
83 | COc1ccccc1C1/C(=C(/O)c2ccccc2)C(=O)C(=O)N1CCO (centres undefined) | inactive: 5%
84 | COC(=O)c1ccccc1S(=O)(=O)N(Cc1cc2cc3c(cc2[nH]c1=O)OCO3)C1CCCCC1 | inactive: -7%
85 | N#CCCS(=O)(=O)c1nnnn1-c1ccccc1 | inconclusive
86 | CC1(C)CC(=O)C2=C(C1)N(CCN1CCOCC1)C1=C(C(=O)CC(C)(C)C1)C2c1cccc(F)c1 | inconclusive
87 | O=C(CSc1ncnc2c1nnn2Cc1ccccc1F)N1CCN(c2ccccc2)CC1 | inactive: -11%
88 | CCCCCOC(=O)CSc1nnc(-c2ccccc2)c(=O)[nH]1 | inconclusive
89 | O=C(NC1CCCC1)C1c2ccccc2C(=O)N1C1CCCCC1 (centres undefined) | inactive: 1%
90 | COc1ccc(NC(=O)CN2CCN(c3ccc(Cl)cc3)CC2)c(OC)c1 | inconclusive
91 | CCc1cccc(NC2c3ccccc3C(=O)N2c2cccnc2)c1 (centres undefined) | inactive: 2%
92 | CCOC(=O)N1CCN(C(=O)CSCC(=O)Nc2nc(-c3ccc(Cl)s3)cs2)CC1 | inconclusive
93 | CCc1ccc(NC(=O)CSc2nc3cc(C(=O)OC)ccc3c(=O)n2Cc2ccco2)cc1 | inconclusive
94 | COc1cccc(NC(=O)Cc2nnc(SCC(=O)c3ccccc3)n2C)c1 | inconclusive
95 | CCCCN(C)CCNC(=O)c1ccc2c(c1)NC(=O)C(N1CCCCC1)S2 (centres undefined) | inconclusive
96 | Clc1ccc(SCCn2ccnc2)cc1 | inactive: -2%
97 | CCOC(=O)c1cc(-c2ccc(F)cc2)n(CC(=O)Nc2nccs2)c1C | inactive: -6%
98 | COc1ccc(Cl)cc1-n1c(=S)sc2c(=O)[nH]c(SCC(=O)NCC3CCCO3)nc21 (centres undefined) | inactive: -3%
99 | COc1cc2c(cc1OC)C1=C(C#N)CN(CC(=O)O)CN1CC2 | inconclusive

Reference: PubChem BioAssay AID528 (NMMLSC, 2006)
